From US12048316B2, “Sweetener and flavor compositions, methods of making and methods of use thereof” (EPC Natural Products Co., Ltd., priority 2018, dated 2024)

Assay: Sensory evaluation (smell, color, taste) of Maillard reaction samples
Set-up: species or system human
[1] = Table 52.5, samples prepared in Example 50
[2] = Table 52.2, samples prepared in Example 50

O=C[C@H](O)[C@H]1OC(=O)[C@@H](O)[C@H]1O [Glucuronolactone]
Smell [1]: Burnt sugar | Smell (Table 57.3, after reaction, 10 ml KH2PO4, pH 7.8, 2.5 h, 120 °C): Burnt sugar

C[C@H](N)C(=O)O [0.1 mMol Ala, Alanine]
Smell [2]: Agar

NCCCC[C@H](N)C(=O)O [0.1 mMol Lys, Lysine]
Smell (Table 52.3, samples prepared in Example 50): Popcorn

O=C[C@H](O)[C@@H](O)[C@H](O)CO [Xyl, xylose]
Smell (Table 52.1, samples prepared in Example 50): neutral/meat | Smell (Table 52.6, sugar alone): Slightly Popcorn | Smell (Table 52.7, samples prepared in Example 50): neutral

O=C[C@H](O)[C@@H](O)[C@H](O)[C@H](O)C(=O)O [Glucuronic Acid]
Smell [1]: burnt bread

C=C1C[C@@]23CC[C@H]4[C@@](C)(CCC[C@@]4(C)C(=O)O[C@@H]4O[C@H](CO)[C@@H](O)[C@H](O)[C@H]4O)[C@@H]2CC[C@]1(O[C@@H]1O[C@H](CO)[C@@H](O)[C@H](O[C@@H]2O[C@H](CO)[C@@H](O)[C@H](O)[C@H]2O)[C@H]1O[C@@H]1O[C@H](CO)[C@@H](O)[C@H](O)[C@H]1O)C3 [Reb-A, Rebaudioside A]
Smell [2]: neutral/unpleasant
